Consider two molecules from patent US20210324075A1.

Amino acid sequences for entries named in this document (tags omitted). A change or cut given only in a name is not applied to a line headed by its entry. Residues count along the entry.
UniProt Q08722: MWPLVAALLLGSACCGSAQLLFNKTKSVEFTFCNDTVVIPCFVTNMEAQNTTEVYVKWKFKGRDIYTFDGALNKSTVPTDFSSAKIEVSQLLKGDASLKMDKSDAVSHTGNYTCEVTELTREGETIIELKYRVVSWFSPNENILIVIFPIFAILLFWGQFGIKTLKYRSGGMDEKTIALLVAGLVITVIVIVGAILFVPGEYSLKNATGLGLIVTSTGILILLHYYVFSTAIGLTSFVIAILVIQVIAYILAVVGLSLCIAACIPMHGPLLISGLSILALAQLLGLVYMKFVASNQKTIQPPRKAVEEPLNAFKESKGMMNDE
UniProt Q61735, residues 19-303: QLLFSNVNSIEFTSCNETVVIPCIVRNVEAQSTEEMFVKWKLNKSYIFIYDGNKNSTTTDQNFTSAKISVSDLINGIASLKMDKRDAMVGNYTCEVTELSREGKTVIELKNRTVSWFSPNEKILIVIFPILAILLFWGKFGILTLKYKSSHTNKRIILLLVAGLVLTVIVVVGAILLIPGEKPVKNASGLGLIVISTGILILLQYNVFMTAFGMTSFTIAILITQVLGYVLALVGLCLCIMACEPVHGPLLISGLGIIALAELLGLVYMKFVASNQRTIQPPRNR
UniProt Q9GKE8, residues 19-303: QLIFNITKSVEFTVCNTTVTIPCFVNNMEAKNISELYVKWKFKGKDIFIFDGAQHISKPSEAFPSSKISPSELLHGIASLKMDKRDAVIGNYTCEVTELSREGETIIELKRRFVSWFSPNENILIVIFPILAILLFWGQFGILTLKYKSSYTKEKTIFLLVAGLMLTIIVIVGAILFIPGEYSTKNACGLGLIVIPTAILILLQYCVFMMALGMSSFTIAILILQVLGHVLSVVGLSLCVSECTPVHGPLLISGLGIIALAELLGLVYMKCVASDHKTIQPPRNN

These are yes or no findings as the source states them, for the method shown. Some entries that bind do so weakly or less than the wild type.

One test has as its target human CD47 (human) (UniProt Q08722). As to the kind of experiment: flow cytometry on human RBCs. A general note: Flow cytometry measures light scatter and fluorescence of single cells or particles in a stream.
The next test deals with mouse CD47 (mouse) (UniProt Q61735). Kind of test: flow cytometry on mouse RBCs.
A further test has as its target T1, rat CD47 (rat) (UniProt P97829).
T1 sequence (looked up): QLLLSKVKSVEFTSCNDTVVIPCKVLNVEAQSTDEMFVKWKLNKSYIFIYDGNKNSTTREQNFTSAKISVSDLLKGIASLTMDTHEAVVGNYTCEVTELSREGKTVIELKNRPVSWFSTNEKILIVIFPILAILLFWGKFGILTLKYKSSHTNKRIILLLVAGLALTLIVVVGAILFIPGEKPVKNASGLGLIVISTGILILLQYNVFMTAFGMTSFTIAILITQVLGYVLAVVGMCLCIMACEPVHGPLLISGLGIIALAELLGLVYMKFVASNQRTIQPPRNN
Kind of test: flow cytometry on rat RBCs.

The target of another test is pig CD47 (pig) (UniProt Q9GKE8). Kind of test: flow cytometry on pig RBCs.

B1: Vx11 (antibody, V domains shown)
VH: EVQLQQSGAQLVKPGTSMKLSCKASGYTFTNYFLYWVKQRPGQGLEWIGDINPNAGSTNLNERFKSKATLTVDKSSSTAYLQLSGLTSEDSAVYYCTRGGYTMDYWGQGTSVTVSS
VL: DVVMTQTPLSLPVSLGDQASISCRSSQSLENSNGDTYLNWYLQKPGQSPQLLIYRVSNRFSGVLDRFSGSGSGTDFTLQISRVEAEDLGVYFCLQVSHVPWTFGGGTNLEIK
B1: the binding result with human CD47 (human), in the test with mouse CD47 (mouse) and with rat CD47 (rat) was “binds” in each case.

B2: Vx13 (antibody, V domains shown)
VH: EVQLQQSGPEVVKPGASVRISCKASDYTFTNYYIHWVRQRPGQGLEWIGWIYPGNNNNKYNEKFKGKATLTEDTSSSTAYMQLSSLTSEDSAVYFCARGGYTMDYWGQG
VL: DVLMTQTPLSLPVSLGDQASISCRSSQSLVHSNGNTYLHWYLQKPGQSPNLLIYKVSNRFSGVPDRFSGSGSGTDFTLKINRVETEDLGIYFCSQSTHVLTFGAG
As to B2, the binding entry in the test with pig CD47 (pig) and with human CD47 (human) was “binds” each time.
